Laboratory results from PMC10682013.
These are yes or no findings as the source states them, for the method shown. Binding seen in cells or lysates may run through a third protein. A yes stands for co-enrichment or nearness to the bait. Other partners may have been found.

The chains behind the UniProt entries cited, without tags or fusion partners.
UniProt P52732: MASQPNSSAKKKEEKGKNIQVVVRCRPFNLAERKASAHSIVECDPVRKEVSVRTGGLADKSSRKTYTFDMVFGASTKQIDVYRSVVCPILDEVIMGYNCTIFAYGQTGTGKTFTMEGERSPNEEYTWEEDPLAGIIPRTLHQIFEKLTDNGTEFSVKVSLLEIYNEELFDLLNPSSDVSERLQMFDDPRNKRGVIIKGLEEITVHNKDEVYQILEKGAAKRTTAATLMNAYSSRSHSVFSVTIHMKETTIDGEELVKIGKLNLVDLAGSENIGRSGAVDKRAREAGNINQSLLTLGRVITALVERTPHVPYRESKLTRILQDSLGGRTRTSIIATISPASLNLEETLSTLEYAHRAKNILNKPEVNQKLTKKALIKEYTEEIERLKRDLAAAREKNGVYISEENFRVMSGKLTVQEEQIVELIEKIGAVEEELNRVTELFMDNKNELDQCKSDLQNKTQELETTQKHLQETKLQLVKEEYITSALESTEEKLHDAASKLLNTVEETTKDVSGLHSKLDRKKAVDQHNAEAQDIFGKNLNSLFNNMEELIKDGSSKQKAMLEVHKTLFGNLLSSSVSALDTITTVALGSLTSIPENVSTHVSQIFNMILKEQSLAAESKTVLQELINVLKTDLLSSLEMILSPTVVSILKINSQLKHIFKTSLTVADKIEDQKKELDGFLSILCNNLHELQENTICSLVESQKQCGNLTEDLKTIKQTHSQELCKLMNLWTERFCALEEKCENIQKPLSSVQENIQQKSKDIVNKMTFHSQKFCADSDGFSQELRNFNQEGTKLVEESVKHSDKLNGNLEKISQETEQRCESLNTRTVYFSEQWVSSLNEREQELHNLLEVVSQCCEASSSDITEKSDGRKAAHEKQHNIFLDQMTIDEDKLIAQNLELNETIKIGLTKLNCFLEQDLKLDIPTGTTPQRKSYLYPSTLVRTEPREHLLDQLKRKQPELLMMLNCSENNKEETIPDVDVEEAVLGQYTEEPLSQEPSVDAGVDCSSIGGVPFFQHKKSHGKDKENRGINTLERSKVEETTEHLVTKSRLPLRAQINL

Molecular target: 3×Flag-TACC3 (Transforming acidic coiled-coil-containing protein 3) (UniProt Q9Y6A5)
Assay: affinity purification with mass spectrometry; 3×Flag-TACC3 expressed in HEK293T cells; whole cell lysate; precipitated with an IgG antibody specific to 3×Flag, normal IgG as control; proteins in the precipitate identified by mass spectrometry

binding: binds
Substance: Kinesin Family Member 11 (KIF11), endogenous (from UniProt P52732 1-1056)
